The results in this text go back to paper PMC8319745.

Sequences of proteins named here, by UniProt entry; tags and fusion partners are left off.
UniProt Q9C030: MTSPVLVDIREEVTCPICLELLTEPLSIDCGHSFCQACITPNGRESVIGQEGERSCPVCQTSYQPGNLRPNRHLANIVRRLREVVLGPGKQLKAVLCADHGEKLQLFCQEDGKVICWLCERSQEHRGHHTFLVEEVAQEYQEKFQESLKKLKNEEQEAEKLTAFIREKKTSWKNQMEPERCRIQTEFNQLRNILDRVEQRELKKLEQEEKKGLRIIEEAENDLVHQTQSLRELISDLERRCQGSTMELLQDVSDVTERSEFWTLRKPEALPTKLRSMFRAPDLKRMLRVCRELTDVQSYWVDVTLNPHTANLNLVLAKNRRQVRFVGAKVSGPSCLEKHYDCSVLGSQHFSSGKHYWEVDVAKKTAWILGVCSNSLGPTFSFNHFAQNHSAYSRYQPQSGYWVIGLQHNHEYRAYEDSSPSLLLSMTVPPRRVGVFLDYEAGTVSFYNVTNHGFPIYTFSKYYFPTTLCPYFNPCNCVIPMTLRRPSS

These are yes or no findings as the source states them, for the method shown. In cells and extracts the contact can be indirect. Some results given as binding are weak or reduced against the parent protein; the word gives no strength. Where a sequence is shown, tags or fusion partners need not be part of it.

This assay deals with T1, IkB kinase ε with Flag tag (IKKε-Flag) (UniProt Q14164).
T1 sequence: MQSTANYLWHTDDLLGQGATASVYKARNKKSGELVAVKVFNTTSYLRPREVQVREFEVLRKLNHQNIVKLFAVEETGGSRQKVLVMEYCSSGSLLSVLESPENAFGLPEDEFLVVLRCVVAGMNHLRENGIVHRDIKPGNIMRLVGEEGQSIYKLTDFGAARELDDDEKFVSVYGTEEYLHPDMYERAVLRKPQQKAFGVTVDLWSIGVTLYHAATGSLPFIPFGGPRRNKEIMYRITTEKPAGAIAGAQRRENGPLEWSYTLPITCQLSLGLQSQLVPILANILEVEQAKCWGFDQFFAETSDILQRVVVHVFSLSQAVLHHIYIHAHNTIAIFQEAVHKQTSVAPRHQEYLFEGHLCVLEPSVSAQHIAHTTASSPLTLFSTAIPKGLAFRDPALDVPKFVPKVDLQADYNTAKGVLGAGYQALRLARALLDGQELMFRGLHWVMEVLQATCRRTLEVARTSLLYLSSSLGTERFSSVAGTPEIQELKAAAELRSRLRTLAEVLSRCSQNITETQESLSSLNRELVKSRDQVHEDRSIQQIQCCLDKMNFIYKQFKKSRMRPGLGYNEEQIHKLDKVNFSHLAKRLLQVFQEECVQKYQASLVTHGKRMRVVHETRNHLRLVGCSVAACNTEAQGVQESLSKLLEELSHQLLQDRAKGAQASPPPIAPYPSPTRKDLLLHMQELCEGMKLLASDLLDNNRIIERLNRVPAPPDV
Put plainly: co-IP.

For “tripartite motif-containing 6 (TRIM6) (from UniProt Q9C030 1-488) (enzyme)”, the binding entry is “binds”.
